According to the odorant receptor screen of Mainland et al. (2015):
Where “and” joins values, the source holds several entries; their conditions need not be identical. Identical values can stand only once. Some of the results follow. Each value is one well over the wells without odorant, computed here; the data are noisy.

How the values were obtained:
Test in all cases: odorant receptor activation (CRE luciferase / Renilla) (fold of no-odor wells); higher = more activation
Conditions in all cases: 100 µM
OR10C1 clone 1065 = system: OR10C1 clone 1065
OR10G3 S73G clone 1272 = system: OR10G3 S73G clone 1272
[1] = system: OR10G4 A9V/M134V/V195E/R235G/K295Q clone 1119
OR10G6 clone 1108 = system: OR10G6 clone 1108
OR10G7 clone 1589 = system: OR10G7 clone 1589
OR10G8 clone 1396 = system: OR10G8 clone 1396
[2] = system: OR10G9 A90T/M134V clone 1192
OR10H1 clone 1291 = system: OR10H1 clone 1291
OR10H2 L40Q clone 1461 = system: OR10H2 L40Q clone 1461
OR10H3 clone 1525 = system: OR10H3 clone 1525
OR10H5 A224D clone 1294 = system: OR10H5 A224D clone 1294
OR10J1 clone 1711 = system: OR10J1 clone 1711
OR10J3 clone 1458 = system: OR10J3 clone 1458
OR10J5 R233W clone 1410 = system: OR10J5 R233W clone 1410
OR10J5 clone 1037 = system: OR10J5 clone 1037
OR10K1 clone 1024 = system: OR10K1 clone 1024
OR10K2 clone 1040 = system: OR10K2 clone 1040
OR10P1 clone 1254 = system: OR10P1 clone 1254
OR10Q1 clone 1202 = system: OR10Q1 clone 1202
[3] = system: OR10R2 A191T/E216G/L239F clone 1304

| SMILES | odorant receptor activation (OR10C1 clone 1065) | odorant receptor activation (OR10G3 S73G clone 1272) | odorant receptor activation [1] | odorant receptor activation (OR10G6 clone 1108) | odorant receptor activation (OR10G7 clone 1589) | odorant receptor activation (OR10G8 clone 1396) | odorant receptor activation [2] | odorant receptor activation (OR10H1 clone 1291) | odorant receptor activation (OR10H2 L40Q clone 1461) | odorant receptor activation (OR10H3 clone 1525) | odorant receptor activation (OR10H5 A224D clone 1294) | odorant receptor activation (OR10J1 clone 1711) | odorant receptor activation (OR10J3 clone 1458) | odorant receptor activation (OR10J5 R233W clone 1410) | odorant receptor activation (OR10J5 clone 1037) | odorant receptor activation (OR10K1 clone 1024) | odorant receptor activation (OR10K2 clone 1040) | odorant receptor activation (OR10P1 clone 1254) | odorant receptor activation (OR10Q1 clone 1202) | odorant receptor activation [3] |
| --- | --- | --- | --- | --- | --- | --- | --- | --- | --- | --- | --- | --- | --- | --- | --- | --- | --- | --- | --- | --- |
| CC/C=C\CCO [cis-3-hexen-1-ol] | 0.961 | 1.05 | 1.17 | 0.883 | 1.61 | 0.344 | 1.05 | 1.2 | 1.23 | 0.909 | 0.996 | 0.972 | 1.25 | 0.161 | 0.925 | 1.72 | 0.943 | 0.871 | 0.955 | 1.04 |
| CC(C)C(=O)O [isobutyric acid] | 2.5 | 1.17 and 0.843 | 1.27 | 1.32 | 11.8 | 0.603 | 0.887 | 1.14 and 1.01 | 0.738 and 0.933 | 0.98 and 0.823 | 0.875 and 1.18 | 0.874 | 0.948 | 0.938 | 0.97 | 0.911 | 0.888 | 1.09 and 1.5 | 1.19 | 1.18 and 0.526 |
| CC(C)C=O [isobutyraldehyde] | 1.25 | 1.33 and 0.934 | 0.914 | 1.05 | 8.61 | 0.811 | 0.72 | 1.61 and 0.974 | 0.61 and 0.969 | 1.03 and 1.14 | 0.997 and 0.967 | 0.931 | 0.931 | 0.899 | 1.23 | 0.819 | 1.38 | 1.27 and 1.44 | 1.14 | 0.993 and 0.618 |
| CCCCCCCC=O [octyl aldehyde] | 0.918 | 1.24 | 0.983 | 1.27 | 4.41 | 0.675 | 1.19 | 1.04 | 0.864 | 0.953 | 1.02 | 0.932 | 0.79 | 1.03 | 1.06 | 1.23 | 1 | 1.14 | 0.995 | 1.08 |
| CC12CCC(CC1)C(C)(C)O2 [cineole] | 0.898 | 0.867 | 1.12 | 0.9 | 1.63 | 0.314 | 0.823 | 1.19 | 1.38 | 0.757 | 0.967 | 1.05 | 1.41 | 0.171 | 0.814 | 0.886 | 0.761 | 0.758 | 0.943 | 1.01 |
| CCCCCCCCCC=O [decyl aldehyde] | 1.31 | 1.25 | 0.946 | 1.33 | 0.268 | 1.41 | 1.22 | 1.15 | 1.27 | 1.42 | 1.25 | 0.675 | 0.861 | 1.17 | 1.02 | 1.4 | 1.3 | 1.3 | 1.2 | 1.17 |
